At least one peptide structure holds a part that was inferred or is arguable (an end, a ring closure or a residue). Ends that are not written are not given here.
Molecular target: ACE2 (Homo sapiens, UniProt Q9BYF1)
Test: SPR binding (Biacore T200) of ACE2 to chip-linked biotinylated B-YL
Conditions: expt. data - SPR (Table 2)

Chains of the proteins cited; added tags and fusions are not shown. Residues count along the entry.
UniProt Q9BYF1, 18-805: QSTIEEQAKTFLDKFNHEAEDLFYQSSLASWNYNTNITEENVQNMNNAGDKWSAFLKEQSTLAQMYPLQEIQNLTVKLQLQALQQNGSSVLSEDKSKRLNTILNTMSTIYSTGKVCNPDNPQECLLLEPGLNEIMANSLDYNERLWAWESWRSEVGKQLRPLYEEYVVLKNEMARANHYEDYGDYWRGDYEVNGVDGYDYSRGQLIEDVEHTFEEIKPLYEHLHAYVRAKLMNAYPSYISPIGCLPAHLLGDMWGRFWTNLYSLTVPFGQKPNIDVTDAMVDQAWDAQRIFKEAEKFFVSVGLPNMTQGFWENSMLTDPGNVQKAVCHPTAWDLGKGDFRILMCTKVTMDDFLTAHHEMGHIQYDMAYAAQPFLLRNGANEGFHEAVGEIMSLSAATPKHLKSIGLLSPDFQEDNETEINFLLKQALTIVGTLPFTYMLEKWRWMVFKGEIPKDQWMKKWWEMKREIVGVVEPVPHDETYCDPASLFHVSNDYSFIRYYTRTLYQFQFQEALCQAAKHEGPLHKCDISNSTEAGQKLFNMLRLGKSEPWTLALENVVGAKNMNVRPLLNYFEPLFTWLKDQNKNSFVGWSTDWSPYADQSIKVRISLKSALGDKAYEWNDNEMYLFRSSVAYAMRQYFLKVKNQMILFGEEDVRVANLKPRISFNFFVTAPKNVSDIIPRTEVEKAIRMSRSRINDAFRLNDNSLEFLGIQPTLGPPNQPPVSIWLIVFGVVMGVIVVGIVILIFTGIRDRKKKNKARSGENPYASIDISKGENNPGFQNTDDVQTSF

**Q.** For “FPIPLPYYWLYRALIKRIQALIPKGGRLLPQLVYRLVLRYS [B-YL]”, which “ΔG (binding free energy)” value is on record?
**A.** The value was -24.2 kJ/mol.
